Taken from: PubChem BioAssay AID743456 (Peter MacCallum Cancer Centre, 2014)

Screen: 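Mimic library tested for viability and apoptosis changes under vorinostat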 (primary screen)
Cells: human HCT116-VR colon cancer cells, a vorinostat-resistant HCT116 line
Reagent: miRNA mimic
Time to read-out: about 3 days from transfection to readout; drug present for the last 24 h
Challenge: vorinostat at 2.5 µM final for 24 h
Measured: 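Cell viability from CellTiter-Fluor signal and caspase activity from luminescence after 24 h vorinostat at 2.5 µM, given as robust z-scores and as ratios to mock-transfected wells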
Direction: viability robust z-score and viability vs mock transfection: higher = more viable cells; caspase robust z-score: higher = more caspase activity, more apoptosis
Call rule: 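Active when viability drops or caspase activity climbs beyond robust z thresholds, with wells of poor cell health excluded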
Shown is an unselected part of 878 reagents. In the full data, 27 (3.1%) are marked active. 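27 mimics are marked active, unlike an earlier stated count of 24; the viability threshold is described inconsistently.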 A number with no mark means an inactive call. No sequences are given here. The record does not give: the amount of reagent.

no.	miRNA	viability robust z-score	caspase robust z-score	viability hit class	caspase hit class	viability vs mock transfection
1	hsa-miR-637	-2.12	0.63	no change	no change	0.44
2	hsa-miR-17*	0.68	-0.52	no change	no change	0.9
3	hsa-miR-633	0.11	-0.73	no change	no change	0.81
4	hsa-miR-802	-1.38	-0.44	no change	no change	0.55
5	hsa-miR-934	-0.9	3.42	no change	no change	0.66
6	hsa-miR-149*	-0.92	2.79	no change	no change	0.63
7	hsa-miR-576-3p	0.98	0.16	no change	no change	0.95
8	hsa-miR-24	0.26	-0.5	no change	no change	0.84
9	hsa-miR-326	-2.02	2.96	no change	no change	0.45
10	hsa-miR-331-3p	-0.42	-1.11	no change	no change	0.68
11	hsa-miR-190b	0.45	-0.67	no change	no change	0.86
12	hsa-miR-220b	0.51	-0.87	no change	no change	0.88
13	hsa-miR-641	1.74	-0.33	no change	no change	1.06
14	hsa-miR-1247	0.2	-0.76	no change	no change	0.82
15	hsa-miR-625	-2.47	1.38	no change	no change	0.38
16	hsa-miR-923	0.96	-0.33	no change	no change	0.94
17	hsa-miR-450a	0.29	-0.52	no change	no change	0.84
18	hsa-miR-942	-0.06	-1.04	no change	no change	0.78
19	hsa-miR-638	1.22	-0.42	no change	no change	1
20	hsa-miR-148a	0.92	0.05	no change	no change	0.94
21	hsa-miR-575	-0.2	1.56	no change	no change	0.76
22	hsa-miR-23b	-0.31	-1	no change	no change	0.7
23	hsa-miR-935	-0.54	-0.34	no change	no change	0.7
24	hsa-miR-1470	1.83	-0.48	no change	no change	1.1
25	hsa-miR-542-5p	0.38	0.92	no change	no change	0.86
26	hsa-miR-550	-0.42	1.53	no change	no change	0.68
27	hsa-miR-186*	0.7	-0.85	no change	no change	0.9
28	hsa-miR-30c-1*	-0.28	1.29	no change	no change	0.7
29	hsa-miR-377	0.06	-0.27	no change	no change	0.76

An excerpt of the results above, as a working copy:
no.	miRNA	viability robust z-score	caspase robust z-score	viability hit class	caspase hit class	viability vs mock transfection
21	hsa-miR-575	-0.2	1.56	no change	no change	0.76
22	hsa-miR-23b	-0.31	-1	no change	no change	0.7
23	hsa-miR-935	-0.54	-0.34	no change	no change	0.7
24	hsa-miR-1470	1.83	-0.48	no change	no change	1.1
25	hsa-miR-542-5p	0.38	0.92	no change	no change	0.86
26	hsa-miR-550	-0.42	1.53	no change	no change	0.68

Continued.
no.	miRNA	viability robust z-score	caspase robust z-score	viability hit class	caspase hit class	viability vs mock transfection
30	hsa-miR-16-2*	-0.25	-0.44	no change	no change	0.75
31	hsa-miR-1295	0.66	0.13	no change	no change	0.87
32	hsa-miR-1268	1.21	-0.3	no change	no change	1
33	hsa-miR-515-3p	0.09	2.29	no change	no change	0.8
34	hsa-miR-1826	0.85	-0.58	no change	no change	0.93
35	hsa-miR-510	-0.88	-0.14	no change	no change	0.66
36	hsa-miR-765	-2.43	0.66	no change	no change	0.32
37	hsa-miR-1200	-0.03	-1.09	no change	no change	0.74
38	hsa-miR-376c	0.49	-0.62	no change	no change	0.86
39	hsa-miR-425*	-0.9	3.19	no change	no change	0.66
40	hsa-miR-623	0.62	-0.47	no change	no change	0.86
41	hsa-miR-551b	0.9	-0.7	no change	no change	0.91
42	hsa-miR-150*	0.66	-0.4	no change	no change	0.87
43	hsa-miR-196b*	0.16	0.8	no change	no change	0.82
44	hsa-miR-103	-0.03	-0.16	no change	no change	0.74
45	hsa-miR-507	0.02	-0.43	no change	no change	0.79
46	hsa-miR-448	-0.21	1.86	no change	no change	0.71
47	hsa-miR-1259	0.74	-0.06	no change	no change	0.88
48	hsa-miR-605	-1.02	1.48	no change	no change	0.57
49	hsa-miR-200a	0.07	-0.94	no change	no change	0.76
50	hsa-miR-421	-2.64	0.97	no change	no change	0.4
51	hsa-miR-425	-0.01	-0.62	no change	no change	0.79
52	hsa-miR-429	1.41	-0.46	no change	no change	1.02
53	hsa-miR-302c*	0.46	-0.36	no change	no change	0.84
54	hsa-miR-18a	0.38	1.22	no change	no change	0.86
55	hsa-miR-380	0.96	-0.44	no change	no change	0.94
56	hsa-miR-373	0.52	2.04	no change	no change	0.88
57	hsa-miR-1303	-0.68	-0.08	no change	no change	0.62
58	hsa-miR-365*	0.82	1.35	no change	no change	0.92
59	hsa-miR-188-5p	1.08	-0.16	no change	no change	0.97
60	hsa-miR-125b-2*	-1.36	-0.18	no change	no change	0.5
61	hsa-miR-31	-0.64	0.55	no change	no change	0.64
62	hsa-miR-15a*	0.01	2.9	no change	no change	0.79
63	hsa-miR-196a	-1.02	-0.25	no change	no change	0.62
